Results as given in PubChem BioAssay AID1259415 (National Center for Advancing Translational Sciences (NCATS), 2018).
The whole screen tested about 410,000 compounds, of which about 18,000 (4.4%) were called active. Inconclusive results, whose numbers are uncertain, are shown with a selection of clear calls. Cut-off read from the data, not from the text of the source: active = activity change below about -60%; inconclusive = no clear call, values can overlap the other calls; inactive = above about -39%. Where a structure was tested more than once in an assay, its records may differ in their call.

assay: qHTS Assay for inhibitors of the human cytomegalovirus (HCMV); settings: HFF cells, HCMV-luciferase reporter, 72 h; at 57.5 µM; active compounds read low
In short: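 Inhibition of viral replication was scored as loss of reporter luminescence in HFFs infected with HCMV-luciferase (MOI 1 PFU/cell) for 72 h; compounds tested at 2 doses, normalized to buffer and Salinomycin controls.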
% is set by controls: 0 for no effect and ±100 for the full control effect.

Row | SMILES | activity change, negative = inhibition
1 | O=C(CN1CCC(NC(=O)c2ccccc2F)CC1)Nc1ccc2c(c1)OCO2 | inconclusive: -46.2%
2 | S=c1[nH]nc(-c2ccccc2Cl)n1Cc1ccccc1 | inactive: -5.47%
3 | Cc1cc(C)c(Cc2c(C)nc3c(C(=O)NCc4ccco4)cnn3c2C)c(C)c1 | active: -98.9%
4 | CCOC(=O)NC(=O)/C(N=Nc1cc(C)cc(C)c1)=C(\C)O | inconclusive: -52.3%
5 | Cc1ccc(C)c(N2CCN(C(=O)C3CCN(C(=O)c4cc5sccc5n4C)CC3)CC2)c1 | inconclusive: -53.9%
6 | CN(C)C(=O)c1ccc(NC(=O)COc2ccc([N+](=O)[O-])cc2)cc1 | inactive: -20.2%
7 | COc1ccccc1N(CN1C(=O)c2ccccc2C1=O)C(=O)c1cccc(C)c1 | inconclusive: -42.4%
8 | Cn1c(-c2csc(-c3cccc(C(F)(F)F)c3)n2)n[nH]c1=S | active: -83.9%
9 | CCOc1ncccc1C(=O)Nc1ccc(S(=O)(=O)Nc2nccs2)cc1 | inconclusive: -43.6%
10 | Cc1ccccc1CN1C(=O)c2ccccc2S(=O)c2ccc(C(=O)NCc3ccco3)cc21 (centres undefined) | inactive: -12.8%
11 | COc1cccc(CNC(=S)Nc2ccc3c(c2)c(=O)n(C)n3Cc2ccc(F)cc2)c1 | inconclusive: -57.5%
12 | C=CCn1c(SCC(=O)NC(=O)NC)nnc1C1CCCCC1 | inconclusive: -41.6%
13 | CCN(CCCNC(=O)C1CCN(C(=O)c2cc3sccc3n2C)CC1)Cc1ccccc1 | inconclusive: -41.2%
14 | Fc1ccc(CCNC(=S)Nc2ccc(F)cc2)cc1 | inconclusive: -58.1%
15 | Cc1oc(-c2ccccc2F)nc1CS(=O)(=O)CC(=O)N1CCN(c2ccc(Cl)cc2)CC1 | active: -82.8%
16 | O=C(c1ccc2c(c1)N(Cc1ccc(F)cc1)C(=O)c1ccccc1S2(=O)=O)N1CCCCCC1 | inconclusive: -53.7%
17 | C=Cc1ccc(Cn2c(C)c(C(=O)NCc3ccc(Cl)c(Cl)c3)sc2=O)cc1 | inconclusive: -42.3%
18 | COc1ccc(CCNC(=O)CC(=O)N/N=C/c2ccc(C(=O)O)cc2)cc1OC | inactive: -11.6%
19 | COc1ccccc1C(=O)Nc1ccnn1C1CCN(Cc2ccn[nH]2)CC1 | inconclusive: -40.6%
20 | CCOc1ccc(NC(=O)c2sc3nc(N4CCOCC4)c4c(c3c2N)CCCC4)cc1 | inactive: -25.5%
21 | Fc1ccc(Br)cc1C1C=C(c2ccc(Br)cc2)Nc2ncnn21 (centres undefined) | inactive: -19.4%

3 entries from above, ordered by heavy-atom count, falling.
Row | SMILES | activity change, negative = inhibition
13 | CCN(CCCNC(=O)C1CCN(C(=O)c2cc3sccc3n2C)CC1)Cc1ccccc1 | inconclusive: -41.2%
17 | C=Cc1ccc(Cn2c(C)c(C(=O)NCc3ccc(Cl)c(Cl)c3)sc2=O)cc1 | inconclusive: -42.3%
4 | CCOC(=O)NC(=O)/C(N=Nc1cc(C)cc(C)c1)=C(\C)O | inconclusive: -52.3%

(more compounds)

Row | SMILES | activity change, negative = inhibition
22 | NS(=O)(=O)c1ccc(NC(=S)Nc2ccc(S(=O)(=O)N3CCCC3)cc2)cc1 | inactive: -31.9%
23 | O=C(N=Nc1c(O)[nH]c2ccc([N+](=O)[O-])cc12)c1cc(-c2ccccc2Cl)nc2ccccc12 | inconclusive: -57.9%
24 | CCc1ccc(NC(=O)c2cc3c(COC(C)=O)cnc(C)c3oc2=O)cc1 | inactive: 9.56%
25 | O=C(O)COc1ccccc1/C=N/NC(=O)C(O)c1ccccc1 (centres undefined) | inactive: 19.5%
26 | CN(C)CC1CCC/C(=C\c2ccc(OC(=O)c3ccc(Cl)cc3)cc2)C1=O (centres undefined) | active: -96.9%
27 | COc1cc(C(=O)OCc2cc(=O)oc3c(C)c(C)ccc23)ccc1OC(F)F | active: -64.9%
28 | COC(=O)c1ccc(OC)c(CN2CCCN(Cc3ccc(F)cc3)S2(=O)=O)c1 | inconclusive: -52.4%
29 | CC(=O)N1CCN(C2=NC(=O)/C(=C/c3ccc(OS(=O)(=O)c4ccccc4)cc3)S2)CC1 | active: -69.8%
30 | O=C1C=C(c2ccccc2)C[C@H](c2cccs2)[C@H]1n1nnc([N+](=O)[O-])n1 | inconclusive: -42.3%
31 | Cn1nnc2cc(NC(=O)N3CCN(c4ccccn4)CC3)ccc21 | inconclusive: -42.2%
32 | CCCCn1c(N)c(N(CCC(C)C)C(=O)CSc2nncn2-c2ccccc2)c(=O)[nH]c1=O | inconclusive: -49.8%
33 | CC1(C)N=C(N)N=C(N)N1c1ccc(OCC(=O)N2CCOCC2)c(Cl)c1 | active: -101%
34 | Cc1cc(C(=O)COC(=O)c2n[nH]c3ccccc23)c(C)n1CC1CCCO1 (centres undefined) | inactive: 7.41%
35 | Cc1nc(CSc2nnc3scc(-c4ccc(Cl)cc4)n23)cs1 | inconclusive: -52.2%
36 | CSc1ccc(CNCC(O)c2ccccc2)cc1 (centres undefined) | inactive: -24.2%
37 | CCOCCn1c(=NC(=O)c2ccc(S(=O)(=O)N3CCOCC3)cc2)sc2cc(S(N)(=O)=O)ccc21 | active: -62.6%
38 | Cc1c2cnn(-c3ccccc3)c(=O)c2c(C)n1CCCC(=O)N1CCN(C2CCCCC2)CC1 | inconclusive: -42.1%
39 | Cc1onc(-c2ccccc2)c1C(=O)Nc1sc2c(c1C(N)=O)CCC2 | inconclusive: -45.2%
40 | Cc1cc(NC(=O)c2cc(-c3cccnc3)nc3c(C)c(C)ccc23)no1 | active: -64%
41 | O=C(NCc1nc(-c2ccccc2)no1)Nc1ccc(F)cc1 | inconclusive: -47.9%
42 | O=C(c1ccco1)N1CCN(Cc2cn[nH]c2-c2ccc(F)cc2F)CC1 | inconclusive: -42.8%

Row | SMILES | activity change, negative = inhibition
43 | CCC1CCCCN1CCCNC(=O)c1cn(CC)c2ccc(S(=O)(=O)N(C)C3CCCCC3)cc2c1=O (centres undefined) | inconclusive: -44.8%
44 | COC(=O)[C@@]12CCCN1[C@H](c1ccc(-c3ccc4c(c3)OCO4)cc1)[C@H]1C(=O)N(C)C(=O)[C@H]12 | inconclusive: -40.7%
45 | O=C(CCC1CCCN(C(=O)c2ccccc2Cl)C1)N1CCN(c2ccccn2)CC1 (centres undefined) | inconclusive: -52.6%
46 | CCCCC(=O)NC(c1ccc(Cl)cc1Cl)c1ccc2cccnc2c1O (centres undefined) | active: -104%
47 | NC(=O)C1CCCN(CCc2ccccc2)C1 (centres undefined) | inconclusive: -53.6%
48 | Cc1cc2c(cc1S(=O)(=O)NCc1ccccc1)OCC(=O)N2 | active: -87.2%
49 | COc1ccc(S(=O)(=O)N2CCN(C)CC2)cc1C(=O)Nc1ccccc1 | inactive: 36.8%
50 | Cc1nc2oc3c(NCC4CCCO4)ncnc3c2c2c1COC(C)(C)C2 (centres undefined) | inactive: 15.8%
51 | CC1CCN(c2cc(C#N)c(C#N)cc2[N+](=O)[O-])CC1 | inconclusive: -52.1%
52 | Cc1ccc(NC(=O)Nc2nnc(SCC(=O)N3CCC(C)CC3)s2)cc1 | active: -87.8%
53 | Cc1cc(C)c2nc(/N=C(\N)NC(=O)Nc3ccccc3)nc(C)c2c1 | inconclusive: -56%
54 | Cc1ccccc1C(=O)OCn1nnc2ccccc2c1=O | inconclusive: -41.1%
55 | Cc1ccsc1/C=N/Nc1nc2ccccc2[nH]1 | inactive: 39.3%
56 | CC(C)C(=O)Nc1oc(-c2ccccc2)cc1C#N | inconclusive: -49.3%
57 | O=C(COc1ccccc1F)NNC(=O)c1cc(Br)ccc1Cl | inconclusive: -40.1%
58 | CCNC(=O)C1(C)CCN1CCS(=O)(=O)c1ccc(C)cc1 (centres undefined) | active: -102%
59 | CC(CCC(=O)O)C1CCC2C3CC(O)C4CC(O)CC[C@]4(C)C3CCC12C (some centres undefined) | inconclusive: -45.4%
60 | O=C(O)CCC(=O)N1N=C(c2ccccc2)CC1c1ccc2c(c1)OCO2 (centres undefined) | inactive: -28.4%
61 | Oc1ccc(-c2cnc3c(Nc4cccc(OC(F)(F)C(F)F)c4)nccn23)cc1 | inconclusive: -52%
62 | O=C(O)c1cc(O)ccc1NC(=O)c1cccc2ccccc12 | inconclusive: 0%
63 | Cc1cccc(CN2CCCC(C(=O)Nc3ccc(-c4cscn4)cc3)C2)c1 (centres undefined) | inactive: -32.8%

An excerpt from above in order of heavy-atom count, largest number first:
Row | SMILES | activity change, negative = inhibition
43 | CCC1CCCCN1CCCNC(=O)c1cn(CC)c2ccc(S(=O)(=O)N(C)C3CCCCC3)cc2c1=O (centres undefined) | inconclusive: -44.8%
37 | CCOCCn1c(=NC(=O)c2ccc(S(=O)(=O)N3CCOCC3)cc2)sc2cc(S(N)(=O)=O)ccc21 | active: -62.6%
38 | Cc1c2cnn(-c3ccccc3)c(=O)c2c(C)n1CCCC(=O)N1CCN(C2CCCCC2)CC1 | inconclusive: -42.1%
44 | COC(=O)[C@@]12CCCN1[C@H](c1ccc(-c3ccc4c(c3)OCO4)cc1)[C@H]1C(=O)N(C)C(=O)[C@H]12 | inconclusive: -40.7%
45 | O=C(CCC1CCCN(C(=O)c2ccccc2Cl)C1)N1CCN(c2ccccn2)CC1 (centres undefined) | inconclusive: -52.6%
61 | Oc1ccc(-c2cnc3c(Nc4cccc(OC(F)(F)C(F)F)c4)nccn23)cc1 | inconclusive: -52%
59 | CC(CCC(=O)O)C1CCC2C3CC(O)C4CC(O)CC[C@]4(C)C3CCC12C (some centres undefined) | inconclusive: -45.4%
49 | COc1ccc(S(=O)(=O)N2CCN(C)CC2)cc1C(=O)Nc1ccccc1 | inactive: 36.8%
53 | Cc1cc(C)c2nc(/N=C(\N)NC(=O)Nc3ccccc3)nc(C)c2c1 | inconclusive: -56%
35 | Cc1nc(CSc2nnc3scc(-c4ccc(Cl)cc4)n23)cs1 | inconclusive: -52.2%
54 | Cc1ccccc1C(=O)OCn1nnc2ccccc2c1=O | inconclusive: -41.1%
51 | CC1CCN(c2cc(C#N)c(C#N)cc2[N+](=O)[O-])CC1 | inconclusive: -52.1%
56 | CC(C)C(=O)Nc1oc(-c2ccccc2)cc1C#N | inconclusive: -49.3%
55 | Cc1ccsc1/C=N/Nc1nc2ccccc2[nH]1 | inactive: 39.3%
47 | NC(=O)C1CCCN(CCc2ccccc2)C1 (centres undefined) | inconclusive: -53.6%

Remaining list, next part

Row | SMILES | activity change, negative = inhibition
64 | COCCCn1c(=O)c2sccc2n2c(CCCC(=O)N(C)Cc3ccco3)nnc12 | inactive: -29%
65 | CC(C)c1cc(=O)n2[nH]c(SCc3ccc(Cl)cc3)nc2n1 | inconclusive: -55.4%
66 | N#CCC(=O)Nc1ccc(C(=O)OC(C(=O)Nc2ccc([N+](=O)[O-])cc2Br)c2ccccc2)cc1 (centres undefined) | inconclusive: -53.9%
67 | OC[C@H](O)[C@H](O)[C@@H](O)[C@@H](O)[C@@H]1SC(c2ccccc2)=NN1c1ccccc1 | inactive: -0.376%
68 | CC(=O)N1CCN(c2nnc(-c3ccccc3)c3ccccc23)CC1 | inconclusive: -58%
69 | CCOC(=O)c1c(CN2CCCCC2)n(C)c2cc(Br)c(O)cc12 | inactive: 0.907%
70 | O=C(CCCc1ccccc1)c1ccc2c(c1)OCCO2 | active: -91.2%
71 | CCOC(=O)N1CCC(=NNc2nc3ccccc3s2)CC1 | inactive: 11.3%
72 | CC(=O)NC(=S)Nc1ccc([N+](=O)[O-])cc1C | inconclusive: -45.4%
73 | O=C(Nc1ccc(NC(=O)c2cccs2)cc1)c1ccc2c(c1)OCCO2 | inconclusive: -52.9%
74 | COC(=O)[C@@]1(Cc2ccc(F)cc2)[C@H]2c3cc(C(=O)N4CCCC4)n(CCc4ccccn4)c3C[C@H]2CN1C(=O)c1ccccc1 | inconclusive: -44%
75 | COc1ccccc1C(CNC(=O)C(CCSC)NC(=O)c1ccccc1Cl)N1CCCC1 (centres undefined) | inactive: 9.53%
76 | COc1cccc(N(CC(=O)Nc2cccnc2)S(C)(=O)=O)c1 | active: -103%
77 | COCCN1C(=O)c2cc(C(=O)Nc3ccc(C)c(F)c3)ccc2C1Nc1ccc(C)c(F)c1 (centres undefined) | inactive: -27.8%
78 | COc1ccc(NC(=O)COc2cccc3c2CCN(Cc2cccnc2)C3=O)c(OC)c1 | inconclusive: -48.4%
79 | COc1cnc(-c2ccccn2)nc1Sc1c(Cl)cccc1Cl | active: -73%
80 | CCN(CC)S(=O)(=O)c1ccc(NC(=O)c2nc3nc(C)cc(C)n3n2)cc1 | inconclusive: -41.8%
81 | CCCCNC(=O)CSc1nc(CCC)nc2ccccc12 | inconclusive: -44.9%
82 | CCOc1cc(S(=O)(=O)N(Cc2ccccc2)Cc2ccccc2)c(OCC)cc1-n1cnnn1 | inactive: 19.7%
83 | Cc1ccc(CN(C(=O)COc2ccc([N+](=O)[O-])cc2)C2CCS(=O)(=O)C2)o1 (centres undefined) | inconclusive: -48.1%
84 | Cc1ccc(C)c(CN2C(=O)c3ccccc3S(=O)c3ccc(C(=O)NCCc4ccc(Cl)cc4)cc32)c1 (centres undefined) | inactive: -12.8%
